# This is one part of the list.
# B1: CBP21 (Serratia marcescens), O83009 (protein)
# chain: MNKTSRTLLSLGLLSAAMFGVSQQANAHGYVESPASRAYQCKLQLNTQCGSVQYEPQSVEGLKGFPQAGPADGHIASADKSTFFELDQQTPTRWNKLNLKTGPNSFTWKLTARHSTTSWRYFITKPNWDASQPLTRASFDLTPFCQFNDGGAIPAAQVTHQCNIPADRSGSHVILAVWDIADTANAFYQAIDVNLSK
# Tests used:
# Assay in all cases: glycan array binding signal (z-score within array); higher = stronger binding
# Details in all cases: glycan notation: IUPAC condensed, linker removed
# [1] = biological target: Gal(b1-4)GlcNAc(b1-3)Gal(b1-4)GlcNAc(b1-2)Man(a1-3)[Gal(b1-4)GlcNAc(b1-3)Gal(b1-4)GlcNAc(b1-2)Man(a1-6)]Man(b1-4)GlcNAc(b1-4)[Fuc(a1-6)]GlcNAc
# Outline: (§1)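 Glycan array data came from 3228 arrays in the Consortium for Functional Glycomics database, and only arrays with an available protein sequence were kept. Glycan names were put into IUPAC-condensed notation, and columns mapping to the same glycan were averaged. The binding signal is a within-array Z-score, averaged across arrays of one protein sequence run at different concentrations or buffers and across linkers. A negative Z-score can be read as non-binding.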
# [2] = biological target: Gal(b1-4)GlcNAc(b1-3)Gal(b1-4)GlcNAc(b1-2)[Gal(b1-4)GlcNAc(b1-3)Gal(b1-4)GlcNAc(b1-6)]Man(a1-6)[Gal(b1-4)GlcNAc(b1-3)Gal(b1-4)GlcNAc(b1-2)Man(a1-3)]Man(b1-4)GlcNAc(b1-4)GlcNAc
# Outline: as §1
# [3] = biological target: Gal(b1-4)GlcNAc(b1-3)Gal(b1-4)GlcNAc(b1-2)[Gal(b1-4)GlcNAc(b1-3)Gal(b1-4)GlcNAc(b1-6)]Man(a1-6)[Gal(b1-4)GlcNAc(b1-3)Gal(b1-4)GlcNAc(b1-2)Man(a1-3)]Man(b1-4)GlcNAc(b1-4)[Fuc(a1-6)]GlcNAc
# Outline: as §1
# [4] = biological target: Gal(b1-4)GlcNAc(b1-3)Gal(b1-4)GlcNAc(b1-3)Gal(b1-4)GlcNAc
# Outline: as §1
# [5] = biological target: Gal(b1-4)GlcNAc(b1-3)Gal(b1-4)GlcNAc(b1-3)Gal(b1-4)GlcNAc(b1-2)Man(a1-3)[Gal(b1-4)GlcNAc(b1-3)Gal(b1-4)GlcNAc(b1-3)Gal(b1-4)GlcNAc(b1-2)Man(a1-6)]Man(b1-4)GlcNAc(b1-4)GlcNAc
# Outline: as §1
# [6] = biological target: Gal(b1-4)GlcNAc(b1-3)Gal(b1-4)GlcNAc(b1-3)Gal(b1-4)GlcNAc(b1-2)Man(a1-3)[Gal(b1-4)GlcNAc(b1-3)Gal(b1-4)GlcNAc(b1-3)Gal(b1-4)GlcNAc(b1-2)Man(a1-6)]Man(b1-4)GlcNAc(b1-4)[Fuc(a1-6)]GlcNAc
# Outline: as §1
# [7] = biological target: Gal(b1-4)GlcNAc(b1-3)Gal(b1-4)GlcNAc(b1-3)Gal(b1-4)GlcNAc(b1-2)[Gal(b1-4)GlcNAc(b1-3)Gal(b1-4)GlcNAc(b1-3)Gal(b1-4)GlcNAc(b1-6)]Man(a1-6)[Gal(b1-4)GlcNAc(b1-3)Gal(b1-4)GlcNAc(b1-3)Gal(b1-4)GlcNAc(b1-2)Man(a1-3)]Man(b1-4)GlcNAc(b1-4)[Fuc(a1-6)]GlcNAc
# Outline: as §1
# [8] = biological target: Gal(b1-4)GlcNAc(b1-3)Gal(b1-4)GlcNAc(b1-3)Gal(b1-4)GlcNAc(b1-3)Gal(b1-4)GlcNAc(b1-2)Man(a1-3)[Gal(b1-4)GlcNAc(b1-3)Gal(b1-4)GlcNAc(b1-3)Gal(b1-4)GlcNAc(b1-3)Gal(b1-4)GlcNAc(b1-2)Man(a1-6)]Man(b1-4)GlcNAc(b1-4)GlcNAc
# Outline: as §1
# [9] = biological target: Gal(b1-4)GlcNAc(b1-3)Gal(b1-4)GlcNAc(b1-3)Gal(b1-4)GlcNAc(b1-3)Gal(b1-4)GlcNAc(b1-2)Man(a1-3)[Gal(b1-4)GlcNAc(b1-3)Gal(b1-4)GlcNAc(b1-3)Gal(b1-4)GlcNAc(b1-3)Gal(b1-4)GlcNAc(b1-2)Man(a1-6)]Man(b1-4)GlcNAc(b1-4)[Fuc(a1-6)]GlcNAc
# Outline: as §1
# [10] = biological target: Gal(b1-4)GlcNAc(b1-3)Gal(b1-4)GlcNAc(b1-3)Gal(b1-4)GlcNAc(b1-3)Gal(b1-4)GlcNAc(b1-2)[Gal(b1-4)GlcNAc(b1-3)Gal(b1-4)GlcNAc(b1-3)Gal(b1-4)GlcNAc(b1-3)Gal(b1-4)GlcNAc(b1-6)]Man(a1-6)[Gal(b1-4)GlcNAc(b1-3)Gal(b1-4)GlcNAc(b1-3)Gal(b1-4)GlcNAc(b1-3)Gal(b1-4)GlcNAc(b1-2)Man(a1-3)]Man(b1-4)GlcNAc(b1-4)[Fuc(a1-6)]GlcNAc
# Outline: as §1
# [11] = biological target: Gal(b1-4)GlcNAc(b1-3)Gal(b1-4)GlcNAc(b1-3)Gal(b1-4)GlcNAc(b1-3)Gal(b1-4)GlcNAc(b1-3)Gal(b1-4)GlcNAc(b1-2)Man(a1-3)[Gal(b1-4)GlcNAc(b1-3)Gal(b1-4)GlcNAc(b1-3)Gal(b1-4)GlcNAc(b1-3)Gal(b1-4)GlcNAc(b1-3)Gal(b1-4)GlcNAc(b1-2)Man(a1-6)]Man(b1-4)GlcNAc(b1-4)GlcNAc
# Outline: as §1
# [12] = biological target: Gal(b1-4)GlcNAc(b1-3)Gal(b1-4)GlcNAc(b1-3)Gal(b1-4)GlcNAc(b1-3)Gal(b1-4)GlcNAc(b1-3)Gal(b1-4)GlcNAc(b1-2)Man(a1-3)[Gal(b1-4)GlcNAc(b1-3)Gal(b1-4)GlcNAc(b1-3)Gal(b1-4)GlcNAc(b1-3)Gal(b1-4)GlcNAc(b1-3)Gal(b1-4)GlcNAc(b1-2)Man(a1-6)]Man(b1-4)GlcNAc(b1-4)[Fuc(a1-6)]GlcNAc
# Outline: as §1
# [13] = biological target: Gal(b1-4)GlcNAc(b1-3)Gal(b1-4)GlcNAc(b1-3)Gal(b1-4)GlcNAc(b1-3)Gal(b1-4)GlcNAc(b1-3)Gal(b1-4)GlcNAc(b1-2)[Gal(b1-4)GlcNAc(b1-3)Gal(b1-4)GlcNAc(b1-3)Gal(b1-4)GlcNAc(b1-3)Gal(b1-4)GlcNAc(b1-3)Gal(b1-4)GlcNAc(b1-6)]Man(a1-6)[Gal(b1-4)GlcNAc(b1-3)Gal(b1-4)GlcNAc(b1-3)Gal(b1-4)GlcNAc(b1-3)Gal(b1-4)GlcNAc(b1-3)Gal(b1-4)GlcNAc(b1-2)Man(a1-3)]Man(b1-4)GlcNAc(b1-4)[Fuc(a1-6)]GlcNAc
# Outline: as §1
# [14] = biological target: Gal(b1-4)GlcNAc(b1-3)Gal(b1-4)GlcNAc(b1-3)Gal(b1-4)GlcNAc(b1-3)Gal(b1-4)GlcNAc(b1-3)Gal(b1-4)GlcNAc(b1-3)Gal(b1-4)GlcNAc(b1-2)Man(a1-3)[Gal(b1-4)GlcNAc(b1-3)Gal(b1-4)GlcNAc(b1-3)Gal(b1-4)GlcNAc(b1-3)Gal(b1-4)GlcNAc(b1-3)Gal(b1-4)GlcNAc(b1-3)Gal(b1-4)GlcNAc(b1-2)Man(a1-6)]Man(b1-4)GlcNAc(b1-4)GlcNAc
# Outline: as §1
# [15] = biological target: Gal(b1-4)GlcNAc(b1-3)Gal(b1-4)GlcNAc(b1-3)GalNAc
# Outline: as §1
# [16] = biological target: Gal(b1-4)GlcNAc(b1-3)Gal(b1-4)GlcNAc(b1-3)[Gal(b1-4)GlcNAc(b1-3)Gal(b1-4)GlcNAc(b1-6)]GalNAc
# Outline: as §1
# [17] = biological target: Gal(b1-4)GlcNAc(b1-3)Gal(b1-4)GlcNAc(b1-6)[Gal(b1-3)]GalNAc
# Outline: as §1
# [18] = biological target: Gal(b1-4)GlcNAc(b1-3)Gal(b1-4)[Fuc(a1-3)]GlcNAc(b1-3)Gal(b1-4)[Fuc(a1-3)]GlcNAc
# Outline: as §1
# [19] = biological target: Gal(b1-4)GlcNAc(b1-3)GalNAc
# Outline: as §1
# [20] = biological target: Gal(b1-4)GlcNAc(b1-3)[Fuc(a1-3)GlcNAc(b1-6)]Gal(b1-4)Glc
# Outline: as §1
# [21] = biological target: Gal(b1-4)GlcNAc(b1-3)[Gal(b1-4)GlcNAc(b1-6)]Gal(b1-4)GlcNAc
# Outline: as §1
# [22] = biological target: Gal(b1-4)GlcNAc(b1-3)[GlcNAc(b1-6)]Gal(b1-4)GlcNAc
# Outline: as §1
# [23] = biological target: Gal(b1-4)GlcNAc(b1-6)Gal(b1-4)GlcNAc
# Outline: as §1
# [24] = biological target: Gal(b1-4)GlcNAc(b1-6)GalNAc
# Outline: as §1
# [25] = biological target: Gal(b1-4)GlcNAc(b1-6)[Gal(b1-3)]GalNAc
# Outline: as §1
# [26] = biological target: Gal(b1-4)GlcNAc(b1-6)[Gal(b1-4)GlcNAc(b1-3)]GalNAc
# Outline: as §1
# [27] = biological target: Gal(b1-4)GlcNAc6P
# Outline: as §1
# [28] = biological target: Gal(b1-6)Gal
# Outline: as §1
# [29] = biological target: Gal3S(b1-3)GalNAc
# Outline: as §1
# [30] = biological target: Gal3S(b1-3)GlcNAc
# Outline: as §1
# [31] = biological target: Gal3S(b1-3)[Fuc(a1-4)]GlcNAc
# Outline: as §1
# [32] = biological target: Gal3S(b1-4)Glc
# Outline: as §1
# [33] = biological target: Gal3S(b1-4)Glc6S
# Outline: as §1
# [34] = biological target: Gal3S(b1-4)GlcNAc
# Outline: as §1
# [35] = biological target: Gal3S(b1-4)[Fuc(a1-3)]Glc6S
# Outline: as §1
# [36] = biological target: Gal3S(b1-4)[Fuc(a1-3)]GlcNAc
# Outline: as §1
# [37] = biological target: Gal3S(b1-4)[Fuc(a1-3)]GlcNAc6S
# Outline: as §1
# [38] = biological target: Gal3S4S(b1-4)GlcNAc
# Outline: as §1
# [39] = biological target: Gal3S6S(b1-4)GlcNAc
# Outline: as §1
# [40] = biological target: Gal3S6S(b1-4)GlcNAc6S
# Outline: as §1
# [41] = biological target: Gal4S(b1-4)GlcNAc
# Outline: as §1
# [42] = biological target: Gal4S6S(b1-4)GlcNAc
# Outline: as §1
# [43] = biological target: Gal6P(b1-4)GlcNAc
# Outline: as §1
# [44] = biological target: Gal6S(b1-3)GlcNAc
# Outline: as §1
# [45] = biological target: Gal6S(b1-3)GlcNAc6S
# Outline: as §1
binder,measurement,setting,value
B1,glycan array binding signal (z-score),[1],0.093
same,glycan array binding signal (z-score),[2],1.3
same,glycan array binding signal (z-score),[3],1.11
same,glycan array binding signal (z-score),[4],0
same,glycan array binding signal (z-score),[5],0.867
same,glycan array binding signal (z-score),[6],2.68
same,glycan array binding signal (z-score),[7],0.051
same,glycan array binding signal (z-score),[8],0.562
same,glycan array binding signal (z-score),[9],-0.333
same,glycan array binding signal (z-score),[10],0.53
same,glycan array binding signal (z-score),[11],1.31
same,glycan array binding signal (z-score),[12],1.64
same,glycan array binding signal (z-score),[13],2.67
same,glycan array binding signal (z-score),[14],1.21
same,glycan array binding signal (z-score),[15],-0.293
same,glycan array binding signal (z-score),[16],0.917
same,glycan array binding signal (z-score),[17],0.071
same,glycan array binding signal (z-score),[18],-0.565
same,glycan array binding signal (z-score),[19],0.076
same,glycan array binding signal (z-score),[20],0.366
same,glycan array binding signal (z-score),[21],0.23
same,glycan array binding signal (z-score),[22],2.17
same,glycan array binding signal (z-score),[23],-1.25
same,glycan array binding signal (z-score),[24],0.422
same,glycan array binding signal (z-score),[25],0.712
same,glycan array binding signal (z-score),[26],0.317
same,glycan array binding signal (z-score),[27],-0.389
same,glycan array binding signal (z-score),[28],-0.589
same,glycan array binding signal (z-score),[29],0.639
same,glycan array binding signal (z-score),[30],-0.204
same,glycan array binding signal (z-score),[31],0.337
same,glycan array binding signal (z-score),[32],-0.647
same,glycan array binding signal (z-score),[33],-0.559
same,glycan array binding signal (z-score),[34],1.21
same,glycan array binding signal (z-score),[35],0.416
same,glycan array binding signal (z-score),[36],0.872
same,glycan array binding signal (z-score),[37],0.76
same,glycan array binding signal (z-score),[38],0.715
same,glycan array binding signal (z-score),[39],0.23
same,glycan array binding signal (z-score),[40],-0.494
same,glycan array binding signal (z-score),[41],-1.04
same,glycan array binding signal (z-score),[42],0.197
same,glycan array binding signal (z-score),[43],1.34
same,glycan array binding signal (z-score),[44],0.882
same,glycan array binding signal (z-score),[45],0.326

# 13 entries from above, reformatted.
binder	measurement	setting	value
B1	glycan array binding signal (z-score)	[33]	-0.559
same	glycan array binding signal (z-score)	[34]	1.21
same	glycan array binding signal (z-score)	[35]	0.416
same	glycan array binding signal (z-score)	[36]	0.872
same	glycan array binding signal (z-score)	[37]	0.76
same	glycan array binding signal (z-score)	[38]	0.715
same	glycan array binding signal (z-score)	[39]	0.23
same	glycan array binding signal (z-score)	[40]	-0.494
same	glycan array binding signal (z-score)	[41]	-1.04
same	glycan array binding signal (z-score)	[42]	0.197
same	glycan array binding signal (z-score)	[43]	1.34
same	glycan array binding signal (z-score)	[44]	0.882
same	glycan array binding signal (z-score)	[45]	0.326

# Reference: the supplement of paper PMC8728848
